{"source": "patent US4792609A", "about": "“Indoline and 1,2,3,4-tetrahydroquinoline N(dicarboalkoxyvinyl) substituted derivatives” (Bayer Aktiengesellschaft, priority 1985, dated 1988)", "test": "UV absorption (λmax, molar and specific extinction, intrinsic coloration)", "assay_type": "physicochemical", "note": "At least one structure is not confirmed: it was looked up by name or label, or the drawing left a doubt.", "data": [{"smiles": "COc1ccc(C(=O)CC(=O)c2ccc(OC)cc2)cc1", "note": "[Comparison example 3, dianisoylmethane, reference compound]", "values": [{"measurement": "specific extinction E^1", "setting": "Table 2", "result": 1270}, {"measurement": "λmax", "setting": "Table 2", "result": 362, "unit": "nm"}, {"measurement": "specific extinction", "setting": "text on Table 2, compared with compounds of formula I, in words", "result": "high specific extinction"}, {"measurement": "wavelength of absorption", "setting": "text on Table 2, in words, important range 320-340 nm", "result": "at too high a wavelength"}]}]}
